Literature values in patent US20050272647A1, “Arthrodial cartilage extracellular matrix degradation inhibitor” (priority 2002, published 2005).
At least one compound was matched to its structure with a doubt left.

Test system: HDAC
Conditions: literature value; read-out: HDAC inhibitory activity (IC50 value); cited from earlier work

## CCC(=O)CCCCC[C@@H]1NC(=O)[C@H]2CCCCN2C(=O)[C@H]([C@@H](C)CC)NC(=O)[C@H](Cc2cn(OC)c3ccccc23)NC1=O [Apicidin]
  IC50: 5 nM
